Data as given in publication PMC9675456.
Results are given in words; binding and its absence hold for the method and conditions named. Binding seen in cells or lysates may run through a third protein. Some entries that bind do so weakly or less than the wild type.

Amino acid sequences for entries named in this document (tags omitted). A change or cut given only in a name is not applied to a line headed by its entry. Residues count along the entry.
UniProt Q9BRT9: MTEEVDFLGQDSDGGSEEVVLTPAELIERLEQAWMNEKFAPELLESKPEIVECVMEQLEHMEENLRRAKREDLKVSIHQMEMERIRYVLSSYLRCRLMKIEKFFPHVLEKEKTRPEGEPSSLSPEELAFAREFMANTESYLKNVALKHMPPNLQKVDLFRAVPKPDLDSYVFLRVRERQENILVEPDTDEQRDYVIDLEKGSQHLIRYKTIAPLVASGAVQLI
Myc-GINS4 Q191X: residues 1-190 of Q9BRT9

B1: GINS1 (protein, UniProt Q14691 1-196)
chain: MFCEKAMELIRELHRAPEGQLPAFNEDGLRQVLEEMKALYEQNQSDVNEAKSGGRSDLIPTIKFRHCSLLRNRRCTVAYLYDRLLRIRALRWEYGSVLPNALRFHMAAEEMEWFNNYKRSLATYMRSLGGDEGLDITQDMKPPKSLYIEVRCLKDYGEFEVDDGTSVLLKKNSQHFLPRWKCEQLIRQGVLEHILS
B2: GINS2 (protein, UniProt Q9Y248 1-185)
chain: MDAAEVEFLAEKELVTIIPNFSLDKIYLIGGDLGPFNPGLPVEVPLWLAINLKQRQKCRLLPPEWMDVEKLEKMRDHERKEETFTPMPSPYYMELTKLLLNHASDNIPKADEIRTLVKDMWDTRIAKLRVSADSFVRQQEAHAKLDNLTLMEINTSGTFLTQALNHMYKLRTNLQPLESTQSQDF
B3: GINS3 (protein, UniProt Q9BRX5 1-216)
chain: MSEAYFRVESGALGPEENFLSLDDILMSHEKLPVRTETAMPRLGAFFLERSAGAETDNAVPQGSKLELPLWLAKGLFDNKRRILSVELPKIYQEGWRTVFSADPNVVDLHKMGPHFYGFGSQLLHFDSPENADISQSLLQTFIGRFRRIMDSSQNAYNEDTSALVARLDEMERGLFQTGQKGLNDFQCWEKGQASQITASNLVQNYKKRKFTDMED

Molecular target: Myc-GINS4 WT (human) (UniProt Q9BRT9)
Assay: co-IP; Myc-GINS4 (WT, V171L or Q191X) precipitated with myc-Trap magnetic agarose beads from HEK293T whole cell extracts 48 h after transfection; Co-IP buffer (10 mM Tris-HCl pH 7.5, 150 mM NaCl, EDTA, 0.5% NP40) with 75 U/mL DNase I and 2.5 mM MgCl2, 30 min at 4°C; blots probed for GINS1, GINS2, GINS3 and MYC

binding	Binder
binds	B1
binds	B2
binds	B3

Molecular target: Myc-GINS4-V171L (human) (UniProt Q9BRT9)
Assay: as above

binding	Binder
binds	B1
binds	B2
binds	B3

Molecular target: Myc-GINS4 Q191X (human) (UniProt Q9BRT9)
Assay: as above

binding	Binder
binds weakly	B1
binds	B2
binds weakly	B3
